Source: the supplement of paper PMC8728848
Some of the results follow.

How the values were obtained:
Experiment in all cases: glycan array binding signal (z-score within array); higher = stronger binding
Conditions in all cases: glycan notation: IUPAC condensed, linker removed
[1] = target: Gal3S(b1-3)[Fuc(a1-4)]GlcNAc
In short: (§1)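 Negative Z-scores can be read as non-binding. The Z-score is calculated within each array and then averaged across arrays of one protein sequence at different concentrations or buffers and across linkers. Arrays, 3228 in all, were curated from the Consortium for Functional Glycomics database and kept only where the protein sequence was available.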

Gal3S(b1-4)Glc = target: Gal3S(b1-4)Glc
In short: as §1

Gal3S(b1-4)Glc6S = target: Gal3S(b1-4)Glc6S
In short: as §1

Gal3S(b1-4)GlcNAc = target: Gal3S(b1-4)GlcNAc
In short: as §1

[2] = target: Gal3S(b1-4)[Fuc(a1-3)]Glc6S
In short: as §1

[3] = target: Gal3S(b1-4)[Fuc(a1-3)]GlcNAc
In short: as §1

[4] = target: Gal3S(b1-4)[Fuc(a1-3)]GlcNAc6S
In short: as §1

Gal3S4S(b1-4)GlcNAc = target: Gal3S4S(b1-4)GlcNAc
In short: as §1

Gal3S6S(b1-4)GlcNAc = target: Gal3S6S(b1-4)GlcNAc
In short: as §1

Gal3S6S(b1-4)GlcNAc6S = target: Gal3S6S(b1-4)GlcNAc6S
In short: as §1

Gal4S(b1-4)GlcNAc = target: Gal4S(b1-4)GlcNAc
In short: as §1

Gal4S6S(b1-4)GlcNAc = target: Gal4S6S(b1-4)GlcNAc
In short: as §1

Gal6P(b1-4)GlcNAc = target: Gal6P(b1-4)GlcNAc
In short: as §1

Gal6S(b1-3)GlcNAc = target: Gal6S(b1-3)GlcNAc
In short: as §1

Gal6S(b1-3)GlcNAc6S = target: Gal6S(b1-3)GlcNAc6S
In short: as §1

Gal6S(b1-4)Glc = target: Gal6S(b1-4)Glc
In short: as §1

Gal6S(b1-4)Glc6S = target: Gal6S(b1-4)Glc6S
In short: as §1

Gal6S(b1-4)GlcNAc = target: Gal6S(b1-4)GlcNAc
In short: as §1

Gal6S(b1-4)GlcNAc6S = target: Gal6S(b1-4)GlcNAc6S
In short: as §1

GalNAc(a1-3)Gal = target: GalNAc(a1-3)Gal
In short: as §1

GalNAc(a1-3)GalNAc = target: GalNAc(a1-3)GalNAc
In short: as §1

[5] = target: GalNAc(a1-3)GalNAc(b1-3)Gal(a1-4)Gal(b1-4)Glc
In short: as §1

[6] = target: GalNAc(a1-3)GalNAc(b1-3)Gal(a1-4)Gal(b1-4)GlcNAc
In short: as §1

GalNAc(b1-3)Gal = target: GalNAc(b1-3)Gal
In short: as §1

[7] = target: GalNAc(b1-3)Gal(a1-4)Gal(b1-4)GlcNAc
In short: as §1

[8] = target: GalNAc(b1-3)Gal(a1-4)Gal(b1-4)GlcNAc(b1-3)Gal(b1-4)Glc
In short: as §1

[9] = target: GalNAc(b1-3)Gal(a1-6)Gal(b1-4)Glc
In short: as §1

GalNAc(b1-3)GalNAc = target: GalNAc(b1-3)GalNAc
In short: as §1

GalNAc(b1-3)GlcNAc = target: GalNAc(b1-3)GlcNAc
In short: as §1

GalNAc(b1-4)Gal(b1-4)Glc = target: GalNAc(b1-4)Gal(b1-4)Glc
In short: as §1

B1: R2-fiber (Pseudomonas aeruginosa), Q9S576 (protein)
chain: HHHHHHKVAKDLVVSLAYQVRTEDGVLVDESPVSAPLDYLHGHGSLISGLETALEGHEVGDKFDVAVGANDAYGQYDENLVQRVPKDVFMGVDELQVGMRFLAETDQGPVPVEITAVEDDHVVVDGNHMLAGQNLKFNVEVVAIREATEEELAHGHVHGAHDHHHDHDHDGCCGGHGHDHGHEHGGEGCCGGKGNGGCGCHENLYFQGVTAGMALAATDIPGLDASKLVSGVLAEQRLPVFARGLATAVSNSSDPNTATVPLMLTNHANGPVAGRYFYIQSMFYPDQNGNASQIATSYNATSEMYVRVSYAANPSIREWLPWQRCDIGGSFTKEADGELPGGVNLDSMVTSGWWSQSFTAQAASGANYPIVRAGLLHVYAASSNFIYQTYQAYDGESFYFRCRHSNTWFPWRRMWHGGDFNPSDYLLKSGFYWNALPGKPATFPPSAHNHDVGQLTSGILPLARGGVGSNTAAGARSTIGAGVPATASLGASGWWRDNDTGLIRQWGQVTCPADADASITFPIPFPTLCLGGYANQTSAFHPGTDASTGFRGATTTTAVIRNGYFAQAVLSWEAFGR
B1 was tested, and the “glycan array binding signal (z-score)” value [1] was 0.137, the “glycan array binding signal (z-score)” value (Gal3S(b1-4)Glc) was -0.16 and the “glycan array binding signal (z-score)” value (Gal3S(b1-4)Glc6S) was 0.533. For the same binder, the “glycan array binding signal (z-score)” value (Gal3S(b1-4)GlcNAc) was 0.165, the “glycan array binding signal (z-score)” value [2] was 0.853 and the “glycan array binding signal (z-score)” value [3] was 0.391. The “glycan array binding signal (z-score)” value [4] was 0.196, the “glycan array binding signal (z-score)” value (Gal3S4S(b1-4)GlcNAc) was -0.439 and the “glycan array binding signal (z-score)” value (Gal3S6S(b1-4)GlcNAc) was 0.781. The “glycan array binding signal (z-score)” value (Gal3S6S(b1-4)GlcNAc6S) was -0.429, the “glycan array binding signal (z-score)” value (Gal4S(b1-4)GlcNAc) was -0.821 and the “glycan array binding signal (z-score)” value (Gal4S6S(b1-4)GlcNAc) was 1.74. For the same binder, the “glycan array binding signal (z-score)” value (Gal6P(b1-4)GlcNAc) was -0.42, the “glycan array binding signal (z-score)” value (Gal6S(b1-3)GlcNAc) was -0.111 and the “glycan array binding signal (z-score)” value (Gal6S(b1-3)GlcNAc6S) was 0.29. For the same binder, the “glycan array binding signal (z-score)” value (Gal6S(b1-4)Glc) was 0.263, the “glycan array binding signal (z-score)” value (Gal6S(b1-4)Glc6S) was 0.583 and the “glycan array binding signal (z-score)” value (Gal6S(b1-4)GlcNAc) was -0.119. The “glycan array binding signal (z-score)” value (Gal6S(b1-4)GlcNAc6S) was -0.049, the “glycan array binding signal (z-score)” value (GalNAc(a1-3)Gal) was 0.47 and the “glycan array binding signal (z-score)” value (GalNAc(a1-3)GalNAc) was 0.659. The “glycan array binding signal (z-score)” value [5] was -0.838, the “glycan array binding signal (z-score)” value [6] was -0.332 and the “glycan array binding signal (z-score)” value (GalNAc(b1-3)Gal) was -0.009. The “glycan array binding signal (z-score)” value [7] was 0.164, the “glycan array binding signal (z-score)” value [8] was -0.577 and the “glycan array binding signal (z-score)” value [9] was -0.358. For the same binder, the “glycan array binding signal (z-score)” value (GalNAc(b1-3)GalNAc) was -0.272, the “glycan array binding signal (z-score)” value (GalNAc(b1-3)GlcNAc) was 0.202 and the “glycan array binding signal (z-score)” value (GalNAc(b1-4)Gal(b1-4)Glc) was 0.504.
